Consider three molecules from PMC11077084, “Biochemical characterization of the meiosis-essential yet evolutionarily divergent topoisomerase VIB-like protein MTOPVIB from Arabidopsis thaliana” (Nucleic Acids Research, 2024).

For assay [1], the target named is T1, Nanoarchaeum equitans Topo VIA (co-expressed with Topo VIB from pETDuet) (Nanoarchaeum equitans) (UniProt Q74M54).
T1 sequence: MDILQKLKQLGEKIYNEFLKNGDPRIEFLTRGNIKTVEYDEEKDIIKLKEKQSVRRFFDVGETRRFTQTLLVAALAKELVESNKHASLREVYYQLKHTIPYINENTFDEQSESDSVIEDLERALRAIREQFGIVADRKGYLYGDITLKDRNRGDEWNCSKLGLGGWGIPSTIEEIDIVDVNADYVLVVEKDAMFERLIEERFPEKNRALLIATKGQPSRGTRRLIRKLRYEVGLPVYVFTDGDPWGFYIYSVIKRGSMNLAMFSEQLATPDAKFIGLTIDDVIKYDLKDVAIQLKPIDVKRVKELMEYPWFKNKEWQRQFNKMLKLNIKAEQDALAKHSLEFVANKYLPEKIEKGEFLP
Put plainly: co-purification (Ni-NTA, then size exclusion); Topo VIA and Topo VIB co-expressed in E. coli; lysate heated to 75°C for 1 h, Ni-NTA in D buffer, Hi-Load Superdex 200 in E buffer with 500 mM NaCl. Background: SEC sorts molecules by how far they enter the pores of the column.

Assay [2] concerns the target T2, A. thaliana His6-MBP-MTOPVIB (A. thaliana) (UniProt Q5Q0E6).
T2 sequence: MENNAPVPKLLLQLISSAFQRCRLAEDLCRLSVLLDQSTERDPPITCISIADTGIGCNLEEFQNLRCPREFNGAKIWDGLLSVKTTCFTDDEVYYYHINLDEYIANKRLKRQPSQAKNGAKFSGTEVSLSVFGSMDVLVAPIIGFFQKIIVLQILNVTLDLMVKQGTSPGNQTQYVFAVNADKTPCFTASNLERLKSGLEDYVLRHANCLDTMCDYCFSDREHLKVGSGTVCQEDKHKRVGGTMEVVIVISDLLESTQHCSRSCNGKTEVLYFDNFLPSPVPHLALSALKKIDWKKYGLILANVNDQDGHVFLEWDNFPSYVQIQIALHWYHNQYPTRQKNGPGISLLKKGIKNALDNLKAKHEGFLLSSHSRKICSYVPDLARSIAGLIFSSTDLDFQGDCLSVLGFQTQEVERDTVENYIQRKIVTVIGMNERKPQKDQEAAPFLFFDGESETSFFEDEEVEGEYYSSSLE
The assay is described as follows: pull-down; three proteins co-expressed in High Five cells; lysate over amylose resin (150 mM KCl), eluate over anti-FLAG M2 gel, then heparin, Mono Q and Superdex 200; components shown by SDS-PAGE, immunoblot and mass spectrometry. For orientation: A western blot detects proteins with antibodies after separation by electrophoresis.

Assay [3] concerns the target T3, A. thaliana Flag-SPO11-2 (A. thaliana) (UniProt Q9M4A1).
T3 sequence: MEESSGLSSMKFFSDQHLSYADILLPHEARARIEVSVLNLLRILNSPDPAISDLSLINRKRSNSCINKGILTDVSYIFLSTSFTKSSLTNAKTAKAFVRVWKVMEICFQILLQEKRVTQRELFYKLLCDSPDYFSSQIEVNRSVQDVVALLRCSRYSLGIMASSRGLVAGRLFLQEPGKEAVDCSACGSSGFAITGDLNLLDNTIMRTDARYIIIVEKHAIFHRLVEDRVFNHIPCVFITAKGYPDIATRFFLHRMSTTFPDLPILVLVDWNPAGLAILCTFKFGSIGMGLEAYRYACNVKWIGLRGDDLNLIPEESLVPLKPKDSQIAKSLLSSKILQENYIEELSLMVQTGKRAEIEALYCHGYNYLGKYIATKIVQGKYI
The assay is described as above.

Results are given in words; binding and its absence hold for the method and conditions named. For some of these results: Binding seen in cells or lysates may run through a third protein. Some entries that bind do so weakly or less than the wild type. For some of these results: Where a sequence is shown, tags or fusion partners need not be part of it.

B1: Nanoarchaeum equitans Topo VIB (expressed alone from pET21b) (natural protein, UniProt Q74N98 1-567, looked up)
chain: MRRTFREATIAEFFEKNKQFLGFDSPRKALVMTVKELVDNALDATEEARILPTIKVTLKEGKYMTVRVEDNGPGIPFNEVPNVFGKFLYGTKFHVLKQNRGQQGIGAAAITLYSQLTTGKPIRVWDKPIDSNKAYYYEIMIDTKRNEPEVLVKKEVKLNIKHGLIVEADIKGEYTKGKQSVDQYLKLTAVANPHAEIIYRTPKGEYIVFKRGTNELPPLPKEIKPHPHGIELGQLKKMVSEHKGDLMDFLIKNFSSVGEDKAKEILARYIFYKEGKEDFEKFFKRFRGRKIDIKSLTSEDLELLLKAMRETKLKMPSAKALIPIGEKNLQIGITKEYDVEYLAVKTRKPKVYSGGIPFLVEVAIGYGDFEKAEILRFANRTPLLYKAGECAIVKAIKDINWKRYGFEVENNLPKNALILVHIASVKVPYTSESKEAIADIPEVREEIKRALQEVARKVQIYIKKKEETKELAEKYLRFYAYGKEIERYLPKLIDKDVDSVVTKTILKRLEEELLERIKNNKTIVTHIENKDYETAKKLIKKMVMPLIKKKIIDESFIDRLIQLYNVS
notes: Topoisomerase VI subunit B, Nanoarchaeum equitans, codon-optimized cDNA in the Nde1 and Xho1 sites of pET21b; The tag is inferred from the vector and the Ni-NTA step; also called N. equitans Topo VIB; source: E. coli Rosetta (DE3) pLysS, purified (Ni-NTA, HiPrep SP XL, Hi-Load Superdex 200)
Turning to B1, the binding result in assay [1] is given as “binds”.

B2: A. thaliana His6-SPO11-1 (protein, UniProt Q9M4A2 1-362)
chain: MEGKFAISESTNLLQRIKDFTQSVVVDLAEGRSPKISINQFRNYCMNPEADCLCSSDKPKGQEIFTLKKEPQTYRIDMLLRVLLIVQQLLQENRHASKRDIYYMHPSAFKAQSIVDRAIGDICILFQCSRYNLNVVSVGNGLVMGWLKFREAGRKFDCLNSLNTAYPVPVLVEEVEDIVSLAEYILVVEKETVFQRLANDMFCKTNRCIVITGRGYPDVSTRRFLRLLMEKLHLPVHCLVDCDPYGFEILATYRFGSMQMAYDIESLRAPDMKWLGAFPSDSEVYSVPKQCLLPLTEEDKKRTEAMLLRCYLKREMPQWRLELETMLKRGVKFEIEALSVHSLSFLSEVYIPSKIRREVSSP
On to B2, for which the binding result in assay [2] and in assay [3] was “binds” each time.

B3: A. thaliana Flag-SPO11-2 (protein, UniProt Q9M4A1 1-383)
chain: MEESSGLSSMKFFSDQHLSYADILLPHEARARIEVSVLNLLRILNSPDPAISDLSLINRKRSNSCINKGILTDVSYIFLSTSFTKSSLTNAKTAKAFVRVWKVMEICFQILLQEKRVTQRELFYKLLCDSPDYFSSQIEVNRSVQDVVALLRCSRYSLGIMASSRGLVAGRLFLQEPGKEAVDCSACGSSGFAITGDLNLLDNTIMRTDARYIIIVEKHAIFHRLVEDRVFNHIPCVFITAKGYPDIATRFFLHRMSTTFPDLPILVLVDWNPAGLAILCTFKFGSIGMGLEAYRYACNVKWIGLRGDDLNLIPEESLVPLKPKDSQIAKSLLSSKILQENYIEELSLMVQTGKRAEIEALYCHGYNYLGKYIATKIVQGKYI
On to B3, for which the binding result in assay [2] is “binds”.
